The record followed here is publication PMC9501056.

Amino acid sequences for entries named in this document (tags omitted). Residues count along the entry.
UniProt A0A0P0XCU3, residues 50-1875: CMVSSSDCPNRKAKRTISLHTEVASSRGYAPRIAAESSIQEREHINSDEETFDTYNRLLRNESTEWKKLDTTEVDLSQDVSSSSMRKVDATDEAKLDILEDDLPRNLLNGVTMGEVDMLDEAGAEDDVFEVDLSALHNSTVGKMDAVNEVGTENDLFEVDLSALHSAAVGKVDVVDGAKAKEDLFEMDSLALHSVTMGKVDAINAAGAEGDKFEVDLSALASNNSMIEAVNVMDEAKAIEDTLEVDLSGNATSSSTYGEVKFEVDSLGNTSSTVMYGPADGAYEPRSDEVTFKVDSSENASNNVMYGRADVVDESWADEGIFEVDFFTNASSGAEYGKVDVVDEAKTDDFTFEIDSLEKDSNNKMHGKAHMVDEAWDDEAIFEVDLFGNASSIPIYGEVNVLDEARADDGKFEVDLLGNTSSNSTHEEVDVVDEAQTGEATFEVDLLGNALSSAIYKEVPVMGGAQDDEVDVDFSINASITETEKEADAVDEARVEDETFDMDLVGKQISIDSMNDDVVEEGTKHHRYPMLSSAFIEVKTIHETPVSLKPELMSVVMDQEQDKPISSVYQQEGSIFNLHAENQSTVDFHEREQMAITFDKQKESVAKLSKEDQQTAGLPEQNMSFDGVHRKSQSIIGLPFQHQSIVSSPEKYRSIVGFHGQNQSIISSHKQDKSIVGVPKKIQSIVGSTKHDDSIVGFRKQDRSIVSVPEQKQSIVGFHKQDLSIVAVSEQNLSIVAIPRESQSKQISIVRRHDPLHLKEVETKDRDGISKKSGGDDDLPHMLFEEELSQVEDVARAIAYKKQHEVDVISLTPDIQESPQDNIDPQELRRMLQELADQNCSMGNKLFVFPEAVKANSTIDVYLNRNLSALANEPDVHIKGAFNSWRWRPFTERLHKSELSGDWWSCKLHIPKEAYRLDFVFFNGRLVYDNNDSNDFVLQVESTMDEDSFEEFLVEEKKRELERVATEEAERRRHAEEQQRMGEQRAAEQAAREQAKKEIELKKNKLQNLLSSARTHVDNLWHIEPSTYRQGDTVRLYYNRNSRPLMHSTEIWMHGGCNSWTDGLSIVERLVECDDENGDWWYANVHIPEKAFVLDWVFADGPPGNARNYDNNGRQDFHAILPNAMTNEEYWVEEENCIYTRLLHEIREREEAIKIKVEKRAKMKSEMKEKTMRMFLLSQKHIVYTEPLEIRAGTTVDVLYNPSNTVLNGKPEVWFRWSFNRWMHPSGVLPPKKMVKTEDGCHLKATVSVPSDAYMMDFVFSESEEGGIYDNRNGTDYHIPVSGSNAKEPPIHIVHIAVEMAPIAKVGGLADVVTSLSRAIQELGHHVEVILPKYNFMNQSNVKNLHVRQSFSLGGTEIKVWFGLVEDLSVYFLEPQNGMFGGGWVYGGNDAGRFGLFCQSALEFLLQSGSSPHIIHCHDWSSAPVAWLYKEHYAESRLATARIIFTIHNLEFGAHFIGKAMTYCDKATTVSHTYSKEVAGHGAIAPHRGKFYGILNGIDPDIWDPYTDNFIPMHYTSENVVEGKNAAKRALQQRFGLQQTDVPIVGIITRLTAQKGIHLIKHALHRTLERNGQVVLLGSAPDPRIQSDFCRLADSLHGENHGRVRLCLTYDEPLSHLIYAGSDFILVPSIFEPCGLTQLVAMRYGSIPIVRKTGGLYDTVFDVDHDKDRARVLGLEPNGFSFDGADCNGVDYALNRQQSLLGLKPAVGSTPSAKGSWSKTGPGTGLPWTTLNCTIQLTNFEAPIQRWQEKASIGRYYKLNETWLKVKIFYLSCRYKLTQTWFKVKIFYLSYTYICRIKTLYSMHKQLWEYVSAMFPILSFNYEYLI

The target of experiment [1] is T1, BEI (Oryza sativa subsp. indica cv. IR36 (endogenous in developing seeds)) (UniProt Q01401).
T1 sequence: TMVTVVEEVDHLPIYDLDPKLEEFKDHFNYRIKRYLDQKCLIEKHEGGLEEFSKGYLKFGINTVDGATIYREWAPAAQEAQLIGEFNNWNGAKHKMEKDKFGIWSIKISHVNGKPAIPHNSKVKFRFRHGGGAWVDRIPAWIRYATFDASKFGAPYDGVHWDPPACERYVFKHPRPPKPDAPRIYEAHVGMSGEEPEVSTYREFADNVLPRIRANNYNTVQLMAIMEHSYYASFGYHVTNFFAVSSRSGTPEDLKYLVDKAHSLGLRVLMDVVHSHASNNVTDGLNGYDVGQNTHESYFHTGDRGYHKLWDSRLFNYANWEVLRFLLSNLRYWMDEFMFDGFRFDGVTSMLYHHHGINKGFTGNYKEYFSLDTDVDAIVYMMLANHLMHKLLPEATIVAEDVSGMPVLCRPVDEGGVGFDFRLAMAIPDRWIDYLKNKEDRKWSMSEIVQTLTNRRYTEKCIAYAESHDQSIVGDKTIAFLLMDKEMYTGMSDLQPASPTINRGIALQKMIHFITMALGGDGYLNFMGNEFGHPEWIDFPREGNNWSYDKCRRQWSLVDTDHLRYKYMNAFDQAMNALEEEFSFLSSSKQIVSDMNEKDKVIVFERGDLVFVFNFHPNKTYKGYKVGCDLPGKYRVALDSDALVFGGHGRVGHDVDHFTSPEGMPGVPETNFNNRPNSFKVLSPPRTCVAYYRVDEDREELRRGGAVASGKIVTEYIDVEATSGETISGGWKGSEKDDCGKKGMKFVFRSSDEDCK
The experiment in a line: co-IP; soluble proteins of developing seeds of WT (IR36) at 15 DAF incubated with isozyme-specific antibodies and protein A magnetic beads; washed with PBS pH 7.4; Western blotting. For orientation: Immunoblotting shows a protein as a band on a membrane.

In experiment [2] the target is T2, SSI (Oryza sativa subsp. indica cv. IR36 (endogenous in developing seeds)) (UniProt A2Y9M4).
T2 sequence: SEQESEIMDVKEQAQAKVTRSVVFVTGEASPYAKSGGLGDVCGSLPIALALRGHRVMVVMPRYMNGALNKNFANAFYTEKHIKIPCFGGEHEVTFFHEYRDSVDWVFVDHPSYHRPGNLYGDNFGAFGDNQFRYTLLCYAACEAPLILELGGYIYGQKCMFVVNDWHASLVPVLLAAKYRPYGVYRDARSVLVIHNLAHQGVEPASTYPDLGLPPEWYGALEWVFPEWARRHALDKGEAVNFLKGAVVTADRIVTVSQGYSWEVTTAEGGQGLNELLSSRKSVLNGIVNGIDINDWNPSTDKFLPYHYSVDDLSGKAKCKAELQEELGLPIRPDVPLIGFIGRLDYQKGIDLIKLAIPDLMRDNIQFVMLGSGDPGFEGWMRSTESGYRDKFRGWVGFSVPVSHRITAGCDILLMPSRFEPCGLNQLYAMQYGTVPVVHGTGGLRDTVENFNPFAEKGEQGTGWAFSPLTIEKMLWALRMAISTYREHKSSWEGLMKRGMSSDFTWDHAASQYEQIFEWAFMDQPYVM
The experiment in a line: co-IP; soluble proteins of developing seeds of WT (IR36) at 10 DAF incubated with isozyme-specific antibodies and protein A magnetic beads; washed with PBS pH 7.4; Western blotting.

Experiment [3] addresses T3, SSIIa (Oryza sativa subsp. indica cv. IR36 (endogenous in developing seeds)) (UniProt P0C586).
T3 sequence: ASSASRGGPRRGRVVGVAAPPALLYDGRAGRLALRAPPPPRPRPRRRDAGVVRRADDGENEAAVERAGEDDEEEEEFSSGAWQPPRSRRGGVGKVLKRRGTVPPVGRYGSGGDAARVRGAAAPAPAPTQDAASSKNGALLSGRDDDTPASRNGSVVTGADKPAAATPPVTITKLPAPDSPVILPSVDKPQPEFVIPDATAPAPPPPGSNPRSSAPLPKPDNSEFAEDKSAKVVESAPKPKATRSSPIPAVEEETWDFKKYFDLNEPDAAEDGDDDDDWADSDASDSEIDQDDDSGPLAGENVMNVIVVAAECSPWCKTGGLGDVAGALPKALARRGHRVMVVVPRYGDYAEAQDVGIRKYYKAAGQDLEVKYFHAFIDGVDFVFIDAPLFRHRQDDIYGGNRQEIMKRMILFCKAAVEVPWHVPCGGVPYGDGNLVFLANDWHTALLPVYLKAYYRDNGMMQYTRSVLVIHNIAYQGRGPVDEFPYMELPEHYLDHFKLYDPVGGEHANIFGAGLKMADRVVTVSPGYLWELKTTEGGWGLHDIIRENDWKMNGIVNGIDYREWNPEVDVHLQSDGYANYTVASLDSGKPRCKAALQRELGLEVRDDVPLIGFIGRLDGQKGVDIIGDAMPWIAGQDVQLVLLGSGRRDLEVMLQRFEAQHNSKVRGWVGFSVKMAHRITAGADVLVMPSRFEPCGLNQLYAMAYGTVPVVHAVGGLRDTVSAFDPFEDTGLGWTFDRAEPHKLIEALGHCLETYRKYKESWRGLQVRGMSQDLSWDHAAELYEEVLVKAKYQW
The description is as above.

The target of experiment [4] is T1, BEI (Oryza sativa subsp. indica cv. IR36 (endogenous in developing seeds)). The experiment in a line: co-IP; soluble proteins of developing seeds of the be2b mutant at 5 DAF incubated with isozyme-specific antibodies and protein A magnetic beads; washed with PBS pH 7.4; Western blotting.
Experiment [5] has as its target T2, SSI (Oryza sativa subsp. indica cv. IR36 (endogenous in developing seeds)). The experiment in a line: co-IP; soluble proteins of developing seeds of the be2b mutant at 10 DAF incubated with isozyme-specific antibodies and protein A magnetic beads; washed with PBS pH 7.4; Western blotting.
For experiment [6], the target named is T3, SSIIa (Oryza sativa subsp. indica cv. IR36 (endogenous in developing seeds)). Described as above.
The target in experiment [7] is T2, SSI (Oryza sativa subsp. indica cv. IR36 (endogenous in developing seeds)). The experiment in a line: co-IP; soluble proteins of developing seeds of the be2b mutant at 15 DAF incubated with isozyme-specific antibodies and protein A magnetic beads; washed with PBS pH 7.4; Western blotting.
The target in experiment [8] is T1, BEI (Oryza sativa subsp. indica cv. IR36 (endogenous in developing seeds)). Described as above.

These are yes or no findings as the source states them, for the method shown. Binding seen in cells or lysates may run through a third protein. Some results given as binding are weak or reduced against the parent protein; the word gives no strength.

For “SSIIIa (from UniProt A0A0P0XCU3 50-1875) (enzyme)”, the binding entry in experiment [1] is “binds weakly”; in experiment [2] it was “binds weakly”; in experiment [3], “binds”; in experiment [4], “binds weakly”; in experiment [5], “binds weakly”; in experiment [6], “binds weakly”. Moreover, the binding entry in experiment [7] and in experiment [8] was “binds weakly” throughout.
